Results deposited as PubChem BioAssay AID602196 (INSERM, 2012).

Test: 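Genes whose knock-down alters cisplatin killing of lung cancer cells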
Cells: human A549 lung cancer cells
Knock-down reagent: siRNA pair against human genes
Timing: 48 h transfection before cisplatin; time from cisplatin to read-out not stated
Challenge: cisplatin at a dose killing half of control-siRNA cells; exact dose and duration not given
Detection: 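Cisplatin cell death as a shift from the 50% death seen with control siRNA; siRNAs toxic or growth-blocking alone scored 0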
Scale: two-siRNA summed score (-2 to +2): higher = both siRNAs protect from cisplatin killing; -2 means both sensitise; mean protection from cisplatin (shift in death) and protection from cisplatin (shift in death), siRNA C: higher = protection from cisplatin killing
Hit rule: 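siRNAs harmful alone (LDH or WST-1) get 0; others get +1 for less and -1 for more cisplatin killing; genes are active when the two siRNAs give the same sign, summing to ±2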
Meaning of the calls: active = both siRNAs shift cisplatin killing the same way; inactive = no consistent shift, or siRNA harmful alone
The deposit covers about 23,000 reagents; this is an unselected part. 455 of all reagents (2%) were called active. 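Active includes both protection and sensitisation; some change values fall well beyond the stated -50 to +50 range.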 Entries without a mark were called inactive. Further read-outs or replicates are left out here. Not stated in the record: the amount of reagent.

no.	gene symbol	two-siRNA summed score (-2 to +2)	mean protection from cisplatin (shift in death) (%)	protection from cisplatin (shift in death), siRNA C (%)
1	ZBP1 (GeneID 81030)	0	-2.1	-6.2
2	LOC387880	2 (active)	18.9	15.7
3	METTL17 (GeneID 64745)	0	-8.7	-2.4
4	FGF18 (GeneID 8817)	0	5.3	16
5	CATSPERD (GeneID 257062)	2 (active)	17.2	22.8
6	LOC390855	0	4.4	7.3
7	KCNRG (GeneID 283518)	0	4.8	2.6
8	SLC25A3P1 (GeneID 163742)	1	19.3	21.1
9	SUGP1 (GeneID 57794)	1	10.4	11
10	NME2 (GeneID 4831)	1	6.5	16.7
11	LOC440504	1	10.2	17
12	AUH (GeneID 549)	0	10.3	11.2
13	SPMIP5 (GeneID 143379)	0	6	7.1
14	ZNHIT1 (GeneID 10467)	1	16.6	20.4
15	CST9L (GeneID 128821)	0	13.3	-0.4
16	KRT71 (GeneID 112802)	0	-1.7	-5.7
17	NMNAT3 (GeneID 349565)	1	5.8	10
18	LOC144631	1	18.3	6.3
19	ABCB5 (GeneID 340273)	-1	-5.6	-8.2
20	NCBP2AS2 (GeneID 152217)	0	5.8	2.7
21	SLC35E3 (GeneID 55508)	0	2.6	6
22	LOC442466	0	25.1	44.4
23	TMEM120A (GeneID 83862)	0	-5.2	-10.3
24	TNN (GeneID 63923)	0	8.1	7.9
25	LOC149329	0	13.5	18.1
26	LINC00928 (GeneID 283761)	0	6.4	6.5
27	SLC2A3 (GeneID 6515)	0	-1.4	-6.5
28	ZC3H7A (GeneID 29066)	0	-5.5	-5.1
29	LOC442602	0	0.8	-0.4
30	LOC440226	0	2.3	6.1
31	PNPLA1 (GeneID 285848)	0	22.5	9.5
32	NR6A1 (GeneID 2649)	0	3.2	7.6
33	ARHGEF5 (GeneID 7984)	0	1.7	16
34	CPNE3 (GeneID 8895)	-1	2.2	-17.3
35	SIVA1 (GeneID 10572)	-1	-13.8	-3.1
36	WNT5A (GeneID 7474)	-1	-5.5	5
37	APOA1 (GeneID 335)	-1	-23.5	-12.2
38	PGAM2 (GeneID 5224)	0	-12.5	-28.1
39	TMEM191A (GeneID 84222)	0	9.9	7.7
40	PPP5C (GeneID 5536)	0	-3.9	-5.2
41	PPIAP78 (GeneID 202227)	1	13.9	8.2
42	CLUH (GeneID 23277)	0	-12.6	5.2
43	SETD9 (GeneID 133383)	0	7.4	1.9
44	FREM2 (GeneID 341640)	2 (active)	23.4	33.3
45	PRSS8 (GeneID 5652)	-1	-33.6	-63.3
46	STRA6 (GeneID 64220)	0	8.1	13.4
47	LOC442373	0	11.8	14.5
48	FGF13 (GeneID 2258)	0	-1.1	-3.1
49	LOC388438	0	-1.7	-4
50	CAP2 (GeneID 10486)	1	9.1	-3.2
51	LOC441040	0	-2.7	0.1
52	ACOXL-AS1 (GeneID 400997)	1	7.4	15.6
53	CYP4F22 (GeneID 126410)	0	-2.9	10.5
54	AKAP11 (GeneID 11215)	0	7.9	21.9
55	GOLGA2P5 (GeneID 55592)	0	2.6	4.3
56	CXCR4 (GeneID 7852)	0	6.4	3.1
57	WFDC10B (GeneID 280664)	-1	-0.7	5.4

Records listed so far whose gene name starts with A or a:
gene symbol	two-siRNA summed score (-2 to +2)	mean protection from cisplatin (shift in death) (%)	protection from cisplatin (shift in death), siRNA C (%)
AUH (GeneID 549)	0	10.3	11.2
ABCB5 (GeneID 340273)	-1	-5.6	-8.2
ARHGEF5 (GeneID 7984)	0	1.7	16
APOA1 (GeneID 335)	-1	-23.5	-12.2
ACOXL-AS1 (GeneID 400997)	1	7.4	15.6
AKAP11 (GeneID 11215)	0	7.9	21.9
